Data: PubChem BioAssay AID504832 (National Center for Advancing Translational Sciences (NCATS), 2011)
In all, about 310,000 compounds went through this assay and about 18,000 (5.8%) were called active. All entries are inconclusive by the source's own rule. Clear calls are listed elsewhere. Calls come from the whole dose curve; as a rule, active = well fitted inhibition curve with a large enough effect; inconclusive = small, poorly fitted or top-dose-only effect, or another doubt; inactive = no such curve, though single readings can be large or run the other way.

experiment: Primary qHTS for delayed death inhibitors of the malarial parasite plastid, 48 hour incubation; settings: P. falciparum luciferase growth in erythrocytes
Excerpt: The goal of this screen is to discover new antimalarial compounds that act by inhibiting the development of the apicoplast in the malarial parasite Plasmodium falciparum. The biochemical processes that make this organelle essential for erythrocytic stage parasites are not well understood. However, antibiotics such as azithromycin and tetracycline, which target the apicoplast translational machinery, have a potent antimalarial effect.
We have developed a cell-based assay that measures parasite growth based on the expression of an integrated copy of a firefly luciferase reporter. To detect small molecules that cause this "delayed death" phenotype, erythrocytes infected with the luciferase-expressing parasites were incubated with compounds for either one or two generations, corresponding to 48 and 96 hours, respectively. Compounds that inhibit parasite growth in the second generation, but not the first, should be enriched in antimalarials that target the apicoplast. Growth inhibition is detected by a decrease in luciferase activity.
Assay Provider: David Fidock and Eric Ekland, Columbia University
Keywords: NIH Roadmap, MLPCN, MLI, MLSMR, qHTS, NCGC, qHTS, malaria, luciferase, viability
Four microliters of culture medium (RPMI 1640 with 0.5% w/v Albumax (GIBCO), 24 mM sodium bicarbonate and 10 ug/mL gentamycin) were dispensed by a Multi-drop Combi into white solid 1536-well plates (Grenier) and 23 nL compound was added by a pin tool. Four microliters of infected erythrocytes (2% hematocrit, 0.1% parasitemia final concentration) in culture medium were dispensed and the plates incubated for 48 hours at 37 C in 5% CO2. Two microliters of luciferase detection reagent was added and luminescence was detected by a ViewLux (PerkinElmer) reader.
Potency is the fitted concentration of half-maximal effect.

Q: For `CP(=O)(Nc1ccc(SC(F)(F)F)cc1)Oc1ccc(F)cc1` (configuration not stated), which Potency is on record?
A: inconclusive: 2.08 µM

Q: With `CC(C)c1ccc(OP(C)(=O)Nc2ccc(SC(F)(F)F)cc2)cc1` (configuration not stated) as the molecule, how does the Potency read?
A: inconclusive: 10.4 µM

Q: Which Potency does the source give for `CCCCCOc1ccc(NP(C)(=O)Oc2ccc(Cl)cc2Cl)cc1` (configuration not stated) here?
A: inconclusive: 0.208 µM

Q: For `COc1ccc(OP(C)(=O)Nc2ccc(SC(F)(F)F)cc2)cc1` (configuration not stated), which Potency is on record?
A: inconclusive: 11.7 µM

Q: Which Potency does the source give for `CCOC(=O)c1ccc(NP(C)(=O)Oc2ccc(F)cc2)cc1` (configuration not stated) here?
A: inconclusive: 9.28 µM

Q: Which Potency does the source give for `CP(=O)(Nc1ccc(Cl)cc1Cl)Oc1ccccc1` (configuration not stated) here?
A: inconclusive: 1.47 µM

Q: Which Potency does the source give for `CP(=O)(Nc1ccccn1)Oc1ccccc1` (configuration not stated) here?
A: inconclusive: 3.7 µM

Q: For `O=[N+]([O-])c1cc([N+](=O)[O-])c(Nc2ccccn2)c([N+](=O)[O-])c1`, which Potency is on record?
A: inconclusive: 2.62 µM

Q: With `COc1ccccc1OP(C)(=O)Nc1ccc(Br)cc1` (configuration not stated) as the molecule, how does the Potency read?
A: inconclusive: 5.22 µM

Q: For `CN(C)C(=O)c1c([N+](=O)[O-])cc([N+](=O)[O-])cc1[N+](=O)[O-]`, which Potency is on record?
A: inconclusive: 18.5 µM

Q: Which Potency does the source give for `CP(=O)(Nc1ccc(Cl)cc1)Oc1ccc(F)cc1` (configuration not stated) here?
A: inconclusive: 5.86 µM

Q: Which Potency does the source give for `COc1ccc(OP(C)(=O)Nc2ccc(Br)cc2)cc1` (configuration not stated) here?
A: inconclusive: 14.7 µM

Q: For `CCOC(=O)c1ccc(NP(C)(=O)Oc2ccc(Cl)cc2)cc1` (configuration not stated), which Potency is on record?
A: inconclusive: 10.4 µM

Q: For `C=C(CC1CC(O)[C@]2(C)OC3CC4OC5C[C@]6(C)O[C@]7(C)CCC8OC9C[C@]%10(C)OC%11C(C)=CC(=O)OC%11CC%10OC9C[C@@H](C)C8OC7CC6O[C@]5(C)C/C=C\C4OC3CC2O1)C(=O)O` (some centres not stated), which Potency is on record?
A: inconclusive: 1.65 µM

Q: With `Cc1cc(C)cc(OP(C)(=O)Nc2ccc(SC(F)(F)F)cc2)c1` (configuration not stated) as the molecule, how does the Potency read?
A: inconclusive: 11.7 µM

Q: With `CP(=O)(Nc1ccc(SC(F)(F)F)cc1)Oc1ccc(Cl)cc1` (configuration not stated) as the molecule, how does the Potency read?
A: inconclusive: 3.7 µM

Q: For `Cc1cc(C)cc(OP(C)(N)=O)c1` (configuration not stated), which Potency is on record?
A: inconclusive: 18.5 µM

Q: For `Cc1ccc(NP(C)(=O)Oc2ccccc2)c(C)c1` (configuration not stated), which Potency is on record?
A: inconclusive: 13.1 µM

Q: For `CC(C)(C)c1ccc(OP(C)(=O)Nc2ccc(SC(F)(F)F)cc2)cc1` (configuration not stated), which Potency is on record?
A: inconclusive: 14.7 µM

Q: With `O=[N+]([O-])c1ccc2c(c1)C=Nc1ccccc1O2` as the molecule, how does the Potency read?
A: inconclusive: 10.4 µM

Q: With `O=[N+]([O-])c1cc([N+](=O)[O-])c(Nc2cccnc2)c([N+](=O)[O-])c1` as the molecule, how does the Potency read?
A: inconclusive: 10.4 µM

Q: For `CP(=O)(Nc1cccc(Br)c1)Oc1ccccc1` (configuration not stated), which Potency is on record?
A: inconclusive: 18.5 µM

Q: For `CCOC(=O)c1ccc(NP(C)(=O)Oc2cc(C)cc(C)c2)cc1` (configuration not stated), which Potency is on record?
A: inconclusive: 18.5 µM

Q: For `COc1ccccc1OP(C)(=O)Nc1cccc(Br)c1` (configuration not stated), which Potency is on record?
A: inconclusive: 10.4 µM

Q: With `CCCOc1ccc(NP(C)(=O)Oc2ccc(Cl)cc2)cc1` (configuration not stated) as the molecule, how does the Potency read?
A: inconclusive: 5.86 µM

Q: Which Potency does the source give for `CN1CCCCC1COC(=O)C1(O)c2ccccc2CCc2ccccc21` (configuration not stated) here?
A: inconclusive: 7.38 µM

Q: Which Potency does the source give for `CC1=C2N=C(C=C3N=C(C(C)=C4[N-][C@@](C)([C@@H]5N=C1[C@](C)(CCC(=O)NC[C@@H](C)OP(=O)([O-])O[C@H]1[C@@H](O)[C@@H](n6cnc7cc(C)c(C)cc76)O[C@@H]1CO)[C@H]5CC(N)=O)[C@@](C)(CC(N)=O)[C@@H]4CCC(N)=O)[C@@](C)(CC(N)=O)[C@@H]3CCC(N)=O)C(C)(C)[C@@H]2CCC(N)=O.[C-]#N.[Co+3]` here?
A: inconclusive: 13.1 µM
